Results are given in words; binding and its absence hold for the method and conditions named. Some entries that bind do so weakly or less than the wild type.
Columns and labels:
[1] = molecular target: Heat shock factor protein 1 (HSF1), purified recombinant (human) (UniProt Q00613); experiment: condition: only normal conditions, without heat shock (monomer fraction of the SEC); SEC + native gel or EMSA; monomer fraction of purified HSF1 from Superdex 200 Increase (4°C, 25 mM HEPES pH 7.4, 0.3 M NaCl, 3 mM DTT, 10% glycerol), then Blue native PAGE and western blot; no heat shock; both purified
mCherry-HSF1 (human) = mCherry-HSF1 (human) (UniProt Q00613); experiment: condition: only cells treated with translation inhibitors together with the stress; native gel or EMSA; HR CNE of lysates of H1299 cells with mCherry-HSF1; stress (42°C, bortezomib 300 nM, AUY-922 300 nM, 1 h) together with translation inhibitors (cycloheximide 10 μg/ml, anisomycin 40 μM, rocaglamide 100 nM; mTOR inhibitors in Fig 5F)
[2] = molecular target: T1, Heat shock factor protein 1 (HSF1), purified recombinant (human), Q00613; experiment: HDX-MS; monomeric, trimeric and heat-treated (42°C, 20 min) HSF1, 2 μM; exchange at 4°C for 30, 600 and 3600 s; pepsin digestion; both purified; details: remark: other sources report otherwise
T1 chain: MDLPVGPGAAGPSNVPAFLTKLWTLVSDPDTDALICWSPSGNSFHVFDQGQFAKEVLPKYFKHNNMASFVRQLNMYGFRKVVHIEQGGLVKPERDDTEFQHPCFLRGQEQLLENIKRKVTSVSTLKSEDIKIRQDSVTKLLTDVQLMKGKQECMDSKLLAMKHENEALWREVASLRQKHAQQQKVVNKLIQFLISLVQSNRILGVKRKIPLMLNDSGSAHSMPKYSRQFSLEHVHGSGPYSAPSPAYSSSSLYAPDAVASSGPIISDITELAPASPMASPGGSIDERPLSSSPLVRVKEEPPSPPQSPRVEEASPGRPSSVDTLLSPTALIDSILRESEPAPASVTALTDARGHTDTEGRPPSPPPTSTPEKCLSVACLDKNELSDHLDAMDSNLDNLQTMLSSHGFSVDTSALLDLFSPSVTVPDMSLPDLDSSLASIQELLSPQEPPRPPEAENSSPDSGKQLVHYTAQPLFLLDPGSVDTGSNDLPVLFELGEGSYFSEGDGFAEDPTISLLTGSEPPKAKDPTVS

Heat shock factor protein 1 (HSF1), purified recombinant (from UniProt Q00613-1 1-529)
binding [1]: no binding

mCherry-HSF1 (from UniProt Q00613-1 1-529)
binding (mCherry-HSF1 (human)): no binding

B1: Heat shock factor protein 1 (HSF1), purified recombinant, Q00613-1 1-529 (natural protein)
chain: T1 chain
binding [2]: binds

Source: paper PMC11534217, “Direct activation of HSF1 by macromolecular crowding and misfolded proteins”
